# In all, about 140,000 compounds went through this assay and about 4,300 (3.1%) were called active. Inconclusive results, whose numbers are uncertain, are shown with a selection of clear calls.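 How the source made its calls: active means readout at or below -70, meaning at least 70% loss of cells showing the perinucleolar compartment, a nuclear body marking cancer cells; inconclusive means readout between -30 and a set limit; inactive means the rest.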
# Assay: High Content Assay for Compounds that inhibit the Assembly of the Perinucleolar Compartment;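 further: plate controls were DMSO wells for no effect and camptothecin positive control wells for full effect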
# Details: PC3M PTB-GFP, PNC prevalence imaging, 16 h; at 10 µM; stronger effect = lower value
# Procedure, shortened: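 PC3M cells stably expressing PTB-GFP, 750–1000 cells/well, treated 16 h at 37 °C with compound (23 nl of library stock), in duplicate. After paraformaldehyde fixation and Hoechst stain, imaged at 20x; PNC prevalence scored by image analysis.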
row,SMILES,"activity change (PNC), negative = inhibition"
1,COC(=O)c1c(C)oc2c1cc(NS(=O)(=O)c1cccs1)c1ccccc12,inactive: 21%
2,COc1ccc(Oc2ccccc2C=O)cc1,inactive: 57.2%
3,O=C(Oc1cc2oc(=O)cc(-c3ccccc3)c2cc1Cl)C1CCCCC1,inactive: -6.76%
4,CCN1C(=O)CSC1=NC1C2CC3CC(C2)CC1C3 (stereo unspecified),inconclusive: -42%
5,COc1ccc(C2=NOC3(CC(=O)N(c4ccc5ccccc5c4)C3=O)C2)c(OC)c1 (stereo unspecified),inconclusive: -50%
6,CCN1/C(=C/C=C/C=C/c2sc3ccccc3[n+]2CC)Sc2ccccc21,inactive: 50.6%
7,CC(/C=C/c1ccc(O)cc1)=N/O,inconclusive: -38.9%
8,CC1(c2ccc3noc(-c4ccc(Cl)cc4)c3c2)OCCO1,inconclusive: -76.7%
9,Cc1cccc2cc(CN(Cc3cccnc3)C(=O)c3ccncc3)c(=O)[nH]c12,inconclusive: -73.6%
10,O=C(CSc1nnnn1-c1cccc2c1CCCC2)N1CCCC1,inactive: 15.2%
11,Cc1ccc[n+](CC(=O)c2cc3ccccc3oc2=O)c1,inconclusive: -44.4%
12,O=C1CCCN1CCCN1C(=O)N[C@@H](Cc2ccccc2)C1=O,inactive: -4.98%
13,COc1ccc(CCNC(=O)NC2CCCCC2)cc1OC,active: -80.9%
14,Cn1cccc1Cc1nnc(SCC(N)=O)n1CCc1ccccc1,inactive: -2.58%
15,N/C(=N\OC(=O)c1ccccc1[N+](=O)[O-])c1cccnc1,inconclusive: -76.8%
16,COc1ccc(CCNC(=O)c2c(O)c3cccc4c3n(c2=O)CC4)cc1,inconclusive: -36.9%
17,Cc1cccc(C)c1NC(=O)Cn1c(=O)n(CCCC(=O)NCc2ccco2)c(=O)c2sccc21,active: -91.5%
18,Cc1ccccc1Cn1ccc(NC(=O)c2nn(C)cc2[N+](=O)[O-])n1,inconclusive: -55.7%
19,Cc1cc(NS(=O)(=O)c2ccccc2)c([N+](=O)[O-])cc1C,inconclusive: -49.5%
20,CN(C)c1ccc(/C=c2/sc3n(c2=O)NC2(c4ccccc4)N(C)C(=O)N(C)C2(c2ccccc2)N=3)cc1 (stereo unspecified),active: -83.7%
21,COCCCNC(=O)c1ccccc1SC,active: -107%
22,CCOc1cc(/C=C2\C(=O)N(c3cccc(C(F)(F)F)c3)C(=O)c3ccccc32)ccc1O,inactive: -3.82%
23,CC1CCCN(C(=O)C2CCN(S(=O)(=O)c3cccc4cccnc34)CC2)C1 (stereo unspecified),inactive: 52.1%

# Sorted by SMILES length (descending): some entries from above
row,SMILES,"activity change (PNC), negative = inhibition"
20,CN(C)c1ccc(/C=c2/sc3n(c2=O)NC2(c4ccccc4)N(C)C(=O)N(C)C2(c2ccccc2)N=3)cc1 (stereo unspecified),active: -83.7%
22,CCOc1cc(/C=C2\C(=O)N(c3cccc(C(F)(F)F)c3)C(=O)c3ccccc32)ccc1O,inactive: -3.82%
17,Cc1cccc(C)c1NC(=O)Cn1c(=O)n(CCCC(=O)NCc2ccco2)c(=O)c2sccc21,active: -91.5%
5,COc1ccc(C2=NOC3(CC(=O)N(c4ccc5ccccc5c4)C3=O)C2)c(OC)c1 (stereo unspecified),inconclusive: -50%
9,Cc1cccc2cc(CN(Cc3cccnc3)C(=O)c3ccncc3)c(=O)[nH]c12,inconclusive: -73.6%
23,CC1CCCN(C(=O)C2CCN(S(=O)(=O)c3cccc4cccnc34)CC2)C1 (stereo unspecified),inactive: 52.1%
1,COC(=O)c1c(C)oc2c1cc(NS(=O)(=O)c1cccs1)c1ccccc12,inactive: 21%
18,Cc1ccccc1Cn1ccc(NC(=O)c2nn(C)cc2[N+](=O)[O-])n1,inconclusive: -55.7%
16,COc1ccc(CCNC(=O)c2c(O)c3cccc4c3n(c2=O)CC4)cc1,inconclusive: -36.9%
19,Cc1cc(NS(=O)(=O)c2ccccc2)c([N+](=O)[O-])cc1C,inconclusive: -49.5%
15,N/C(=N\OC(=O)c1ccccc1[N+](=O)[O-])c1cccnc1,inconclusive: -76.8%
12,O=C1CCCN1CCCN1C(=O)N[C@@H](Cc2ccccc2)C1=O,inactive: -4.98%
8,CC1(c2ccc3noc(-c4ccc(Cl)cc4)c3c2)OCCO1,inconclusive: -76.7%
11,Cc1ccc[n+](CC(=O)c2cc3ccccc3oc2=O)c1,inconclusive: -44.4%
4,CCN1C(=O)CSC1=NC1C2CC3CC(C2)CC1C3 (stereo unspecified),inconclusive: -42%
13,COc1ccc(CCNC(=O)NC2CCCCC2)cc1OC,active: -80.9%
2,COc1ccc(Oc2ccccc2C=O)cc1,inactive: 57.2%
21,COCCCNC(=O)c1ccccc1SC,active: -107%

# Another view of two compounds above:
row	SMILES	activity change (PNC), negative = inhibition
21	COCCCNC(=O)c1ccccc1SC	active: -107%
22	CCOc1cc(/C=C2\C(=O)N(c3cccc(C(F)(F)F)c3)C(=O)c3ccccc32)ccc1O	inactive: -3.82%

# (listing goes on)

row,SMILES,"activity change (PNC), negative = inhibition"
1,Cc1cccc(C)c1OCC(=O)Nc1ncn[nH]1,inconclusive: -51.3%
2,COC(=O)c1cc2ccsc2n1CC(=O)Nc1cc(Cl)ccc1OC,inconclusive: -46.2%
3,COc1ccc(OCc2nnc(SC3CCOC3=O)n2-c2ccccc2)cc1 (stereo unspecified),inconclusive: -36%
4,CCOC(=O)c1c(C)[nH]c(C)c1C(=O)COC(=O)[C@@H]1CCCN1S(=O)(=O)c1ccc(Cl)cc1,inconclusive: -70.1%
5,CCOC(=O)N1CCN(C(=O)CCS(=O)(=O)c2ccc(Br)s2)CC1,inconclusive: -59.2%
6,CCN(CC)C(=O)CN1CCC(n2c(C)nc3cc(C(F)(F)F)ccc32)CC1,inconclusive: -77.8%
7,COc1ccc(NC2=Nc3cccc4cccc2c34)cc1OC,inactive: 49.2%
8,CCCCOC(=O)c1ccc(NC(=S)NC(=O)c2c(Br)c(C)nn2C)cc1,inactive: -18.6%
9,Cc1nn(Cc2c(F)c(F)c(F)c(F)c2F)c(C)c1NC(=O)c1nn(C)cc1[N+](=O)[O-],inconclusive: -30.5%
10,CCOC(=O)CSc1nnc(CSc2nc3ccccc3s2)n1C,active: -97.2%
11,S=C(Nc1ccc(Cl)cc1)c1nc2ccccc2s1,inactive: 43.3%
12,O=C1CC(c2ccco2)CC(O)=C1C=NCC1NCCc2ccccc21 (stereo unspecified),inactive: 112%
13,O=C(N/N=C/c1c(O)ccc2ccccc12)c1[nH]ncc1Br,inconclusive: -38.3%
14,COc1cc(/C=C(/C#N)c2nc3ccccc3c(=O)[nH]2)ccc1O,inactive: -25.4%
15,C/C(=N/N=C1/NC(=O)CC(C(=O)Nc2ccccc2)S1)c1cccs1 (stereo unspecified),inactive: -9.6%
16,COCCn1c(COc2cccc(OC)c2)nnc1SCC(=O)N1CCOCC1,inactive: -24.9%
17,O=C(NC(=S)Nc1ccc2c(c1)OCCO2)c1ccc(F)cc1Cl,inactive: -14.2%
18,Cc1ccc(S(=O)(=O)Nc2ccccc2/C=N/c2nc3ccccc3n2C)cc1,inconclusive: -50%
19,Cc1cc(NC(=O)CCCC(=O)O)nc(C)n1,inconclusive: -43.3%
20,CCc1c(C)nc(N)n2c(SCC(=O)N3CCN(c4ccccc4F)CC3)nnc12,inconclusive: -62.1%
21,O=C(Nc1nccs1)c1cc(-c2ccccc2)nn1-c1ccccc1,inconclusive: -44.6%
22,CSCCC(NC(=O)c1ccc(Cl)cc1)C(=O)OCC(=O)Nc1cc(Cl)ccc1C#N (stereo unspecified),inactive: -2.06%
23,CC(=O)N1c2ccccc2C(C)(c2ccccc2)CC1(C)C (stereo unspecified),inconclusive: -59%

row,SMILES,"activity change (PNC), negative = inhibition"
1,COC(C(=O)Nc1ccc(S(=O)(=O)Nc2ccc(C)c(C)c2)cc1)c1ccccc1 (stereo unspecified),inconclusive: -30%
2,CCSc1nc2c(c(=O)[nH]c(=O)n2C)n1C,inconclusive: -41.2%
3,CC(=O)Nc1cccc(C(=O)/C=C/c2ccc(C)cc2)c1,inconclusive: -61.6%
4,O=C(C1CC(=O)N(C2CCCC2)C1)N1CCC(Cc2ccccc2)CC1 (stereo unspecified),active: -106%
5,Nc1nc(N2CCN(C/C=C/c3ccccc3)CC2)nc2ccccc12,inconclusive: -53.5%
6,O=C(Nc1cc(S(=O)(=O)N2CCOCC2)ccc1N1CCCC1)c1cnccn1,inactive: 16%
7,COc1ccc(S(=O)(=O)NCCC(=O)NCc2cccs2)cc1,inactive: 17.1%
8,Cc1ccc(NC(=O)/C(=C/c2cccc([N+](=O)[O-])c2)NC(=O)C2CCCCC2)cc1,inconclusive: -43%
9,O=C(O)CCCC(=O)Nc1ccc(Br)cc1C(=O)O,inactive: 26.1%
10,Cc1ccccc1NC1=C(Cl)C(=O)N(C2CCCCC2)C1=O,inconclusive: -40.1%
11,CCOC(=O)c1ccc(NC(=O)N2CCN(S(C)(=O)=O)CC2)cc1,inconclusive: -34.9%
12,Cc1cc(N2CC34C=CC(O3)C(C(=O)O)C4C2=O)no1 (stereo unspecified),inconclusive: -42.5%
13,Nc1c(Br)cc(Br)c(N2CCCC2=O)c1Br,inconclusive: -38%
14,Cc1ccccc1OCc1nc2ccccc2c(=O)n1N,inconclusive: -50.9%
15,CCc1cccc(CC)c1NC(=O)COC(=O)Cc1ccsc1,inconclusive: -42.7%
16,CC(Nc1oc(-c2ccco2)nc1C#N)c1ccccc1 (stereo unspecified),inactive: -10.5%
17,NC(=O)[C@@H]1CCNc2c(I)cc([N+](=O)[O-])cc2C(=O)N[C@@H](CCC(=O)O)C(=O)N[C@@H](CO)C(=O)N1,inactive: 34.7%
18,CC(C)C(C(=O)NCc1ccco1)N(C(=O)CNS(=O)(=O)c1ccccc1)C1CCCC1 (stereo unspecified),inconclusive: -59.4%
19,CC(C)Cc1ccc(C#N)c(SCC(N)=O)n1,inconclusive: -66%
20,O=C(C1CCN(S(=O)(=O)c2ccc(-n3cnnn3)cc2)CC1)N1CCN(c2ccccc2)CC1,inconclusive: -38.3%
21,COC(=O)CCC/C=C1/SCC(NC(=O)c2ccccc2)C1O (stereo unspecified),inconclusive: -52.2%
22,COc1cc(C)c(CNC2CCCCC2)cc1C,inactive: 20.8%
23,O=C(Nc1ccc2c(c1)OCO2)C(c1ccc(Cl)cc1)N1CCC2(CC1)OCCO2 (stereo unspecified),inconclusive: -32.1%

row,SMILES,"activity change (PNC), negative = inhibition"
1,COC(=O)c1ccccc1NC(=O)Cn1ccnc1,inconclusive: -53.5%
2,COC(=O)N/N=C/c1ccc(-c2cc(Cl)ccc2Cl)o1,inconclusive: -65.7%
3,O=C(OCn1nnc2ccccc2c1=O)C1CCCCC1,inconclusive: -46.9%
4,Cn1cnnc1SCC(=O)Nc1ccc2nc(SCc3cccc4ccccc34)sc2c1,inconclusive: -43.7%
5,O=c1[nH]c2ccccc2n2c(-c3ccccc3)nnc12,inconclusive: -35.3%
6,CN(c1ccccc1C(=O)Nc1ccccc1C(=O)NCc1ccco1)S(C)(=O)=O,active: -117%
7,O=C(C1CCCN1C(=O)c1cccs1)N1CCc2ccccc21 (stereo unspecified),active: -97.9%
8,Cc1ccc(C2CC(c3cccs3)n3nc(N)nc3N2)cc1 (stereo unspecified),inconclusive: -43.2%
9,Nc1nc(SCC(=O)N2CCc3ccccc32)[nH]c(=O)c1-c1ccccc1,active: -107%
10,CC(C)(C)OCC(NC(=O)C(CC(N)=O)NC(=O)OC(C)(C)C)C(=O)OC(C)(C)C (stereo unspecified),inactive: 7.61%
11,COc1ccc(S(=O)(=O)Nc2ccccc2OC)cc1C,inconclusive: -48.8%
12,O=C1N=C(N2CCC(Cc3ccccc3)CC2)S/C1=C/c1cn[nH]c1-c1ccccc1,inactive: -0.516%
13,O=C(Nc1ccc(N2CCOCC2)cc1)c1ccc(S(=O)(=O)N2CCCCC2)cc1,inconclusive: -71.3%
14,CC(=O)c1c(C)[nH]c(C(=O)OCC(=O)Nc2cc(C(F)(F)F)ccc2N2CCOCC2)c1C,inactive: 12.8%
15,CCOC(=O)C1CCN(C(=O)c2ccccc2Oc2ccccc2)CC1,inconclusive: -38.8%
16,N/C(=N\OC(=O)c1ccc(Cl)cc1)c1cccnc1,inactive: 4.9%
17,Cn1c(Cc2csc(N)n2)nnc1SCC(=O)NCc1ccccc1,active: -92%
18,COc1ccc(S(=O)(=O)CCC(=O)NCCc2cccc(C)c2)cc1,inconclusive: -34.4%
19,O=C(COC(=O)c1ccccc1C(=O)c1ccccc1)NCCc1ccccc1,inconclusive: -58.4%
20,CCSC1=C(C#N)C2(CCCC2)C(C#N)=C(N)N1,active: -81.2%
21,O=C1C=C(Nc2ccc(Cl)cc2)CC(c2ccccc2)C1 (stereo unspecified),inactive: -13.7%
22,C=C1N(c2ccccc2)C(=O)OC1(C)C,inactive: 6.04%
